Test results from US20030139372A1, “Modulation of bone formation” (priority 2000, published 2003).
For at least one compound, name, drawing or mass did not settle the structure.

System: bone forming cells
Assay: Bone anabolic activity from CFU-f and NASP cell assays combined with neonatal rat calvarial organ cultures
Assay type: cell-based
Settings: magnitude relative to PGE2
Description: The main reason for the lack of understanding of the cellular basis for the actions of bone anabolic drugs is that there exists, at present, no single in vitro assay which responds to these drugs in an appropriate manner. However, we have now developed a number of assays which, when used in combination with neonatal rat calvarial organ cultures, are able to predict bone anabolic agents.
In the accompanying Figures, which are purely illustrative and not limiting on the present invention, the effect of certain compounds is shown on alkaline phosphatase activity, calcium uptake and collagen synthesis, respectively, with the final bar showing the cumulative and determinative effect of the compound on bone anabolism:
As noted above, there is no single assay that can reliably report on bone anabolic activity. Individual assays can identify certain putative bone anabolic agents but as there are many bone anabolic agents which act by a number of mechanisms, many remain unidentified. By using the CFU-f and the NASP cell assays in combination with neonatal rat calvarial organ cultures, bone anabolic agents can be reliably identified as the false negatives are reduced to a minimum.

Row | Structure (SMILES) | bone anabolic activity compared with PGE2
1 | CC(C)OC(=O)C(C)(C)Oc1ccc(C(=O)c2ccc(Cl)cc2)cc1 [fenofibrate] | superior to that of PGE2
2 | CC(C)(Oc1ccc(CCNC(=O)c2ccc(Cl)cc2)cc1)C(=O)O [bezafibrate] | superior to that of PGE2
